Experimental data: doi:10.1101/2025.11.25.690410
Results are given in words; binding and its absence hold for the method and conditions named. In cells and extracts the contact can be indirect. Some binding calls cover weakened binding; strength is not graded here.

Protein sequences, listed by entry. Tags and fused reporters are not part of them.
UniProt Q8C0J2: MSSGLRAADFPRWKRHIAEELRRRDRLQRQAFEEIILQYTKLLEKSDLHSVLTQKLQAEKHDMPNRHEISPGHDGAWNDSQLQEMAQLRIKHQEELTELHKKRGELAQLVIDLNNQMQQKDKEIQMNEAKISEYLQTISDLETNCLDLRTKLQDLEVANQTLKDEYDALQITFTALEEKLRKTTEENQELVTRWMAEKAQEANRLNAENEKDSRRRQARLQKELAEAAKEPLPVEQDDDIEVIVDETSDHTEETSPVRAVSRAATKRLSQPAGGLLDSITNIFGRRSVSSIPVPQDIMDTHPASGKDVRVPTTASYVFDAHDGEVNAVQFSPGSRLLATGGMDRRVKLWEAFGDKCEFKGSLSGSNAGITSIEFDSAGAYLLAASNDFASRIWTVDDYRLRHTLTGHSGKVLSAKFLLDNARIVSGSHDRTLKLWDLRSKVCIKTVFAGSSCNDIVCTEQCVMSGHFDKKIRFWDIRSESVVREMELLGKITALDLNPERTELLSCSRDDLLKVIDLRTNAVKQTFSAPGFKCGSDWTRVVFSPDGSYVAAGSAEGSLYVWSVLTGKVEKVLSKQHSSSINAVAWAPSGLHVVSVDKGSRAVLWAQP

Biological target: ATG16L1 (mouse (endogenous in acute cortical slices)) (UniProt Q8C0J2)
Assay: co-IP

binding: binds
B1: Rab5b (protein, UniProt P61021 1-215)
chain: MTSRSTARPNGQPQASKICQFKLVLLGESAVGKSSLVLRFVKGQFHEYQESTIGAAFLTQSVCLDDTTVKFEIWDTAGQERYHSLAPMYYRGAQAAIVVYDITNQETFARAKTWVKELQRQASPSIVIALAGNKADLANKRMVEYEEAQAYADDNSLLFMETSAKTAMNVNDLFLAIAKKLPKSEPQNLGGAAGRSRGVDLHEQSQQNKSQCCSN
